Test results as given in the supplement of paper PMC6078165.
The reference is the same well before dosing, and untreated signal decays as well.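 Fibroblast labels denote human fibroblasts, mainly primary ones from uterus (C12385, HUF), lung (H6013), bone (Hs27A), adrenal (HADF) and skin (WS1), plus mammary HMF and breast cancer-associated Hs343T. Cancer cells are basal-like or mesenchymal-like triple-negative breast cancer lines. A hit is a response shift exceeding 3x replicate standard deviation. The tissue of the other fibroblasts is not given here.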 Numbered stars: 1 amine (or outer) side, 2 acyl side, 3 side chain; on linkers, the order of the positions; unused ones are H or OH. Bridge positions count the residues as written; N and C are the ends. Square brackets hold non-standard residues; d marks the D form. Peptide text beside a SMILES is read from it. I, II: the chains in the order shown. Actinocin(9to1) = Cc1c2oc3c(C)ccc(C(=O)[*:1])c3nc-2c(C(=O)[*:2])c(N)c1=O; NMeV = CN[C@H](C(=O)O)C(C)C; Sar = CNCC(=O)O

Tested on: BT20
Test: relative JC-1 red fluorescence (viability) vs pre-drug, coculture with fibroblast (fraction); higher = more viable cancer cells
Protocol: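 JC-1 labelled TNBC cells cocultured 1:1 (1,500 cells each) with CellTrace Violet stained primary or stromal fibroblasts in 384-well plates in FluoroBrite medium, treated with one of 42 anticancer drugs at 0.1, 1, 10 or 100 uM. JC-1 red fluorescence (mitochondrial integrity in cancer cells only) was read by plate reader every 8 h for 72 h. Values are normalised to each well's pre-drug value. The stock of one drug was tenfold lower, so its dose labels may be too high.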

Cc1c2oc3c(C)ccc(C(=O)N[C@@H]4C(=O)N[C@H](C(C)C)C(=O)N5CCC[C@H]5C(=O)N(C)CC(=O)N(C)[C@@H](C(C)C)C(=O)O[C@@H]4C)c3nc-2c(C(=O)N[C@@H]2C(=O)N[C@H](C(C)C)C(=O)N3CCC[C@H]3C(=O)N(C)CC(=O)N(C)[C@@H](C(C)C)C(=O)O[C@@H]2C)c(N)c1=O [Dactinomycin] (I: T[dV]P[Sar][NMeV] / II: T[dV]P[Sar][NMeV]; ester I:1-I:C, II:1-II:C; linker I:N-II:N via Actinocin(9to1))
relative JC-1 red fluorescence
Conditions	8 h	16 h	24 h	32 h	40 h	48 h	56 h	64 h	72 h
10 µM, coculture fibroblast: C12385	0.86382	0.753	0.684	0.583	0.514	0.488	0.486	0.486	0.492
10 µM, coculture fibroblast: H6013	0.9028	0.7465	0.722	0.609	0.589	0.576	0.597	0.596	0.592
10 µM, coculture fibroblast: H6019	0.838	0.674	0.592	0.528	0.462	0.449	0.434	0.429	0.431
10 µM, coculture fibroblast: H6076	0.927	0.834	0.673	0.6175	0.5885	0.568	0.5538	0.5535	0.5393
10 µM, coculture fibroblast: H6231	0.869	0.8073	0.646	0.573	0.543	0.516	0.484	0.47	0.465
10 µM, coculture fibroblast: HADF	0.958	0.772	0.714	0.594	0.594	0.571	0.593	0.596	0.582
10 µM, coculture fibroblast: HCFa	0.894	0.7997	0.727	0.618	0.594	0.581	0.604	0.609	0.595
10 µM, coculture fibroblast: HCPF	0.89	0.8782	0.737	0.668	0.633	0.603	0.579	0.579	0.557
10 µM, coculture fibroblast: HHSteC	0.887	0.768	0.727	0.621	0.611	0.581	0.584	0.581	0.566
10 µM, coculture fibroblast: HMF	0.843	0.827	0.592	0.48	0.448	0.415	0.407	0.395	0.388
10 µM, coculture fibroblast: HPFa	0.887	0.74702	0.7118	0.612	0.6039	0.5793	0.595	0.602	0.592
10 µM, coculture fibroblast: HUF	0.889	0.7634	0.668	0.571	0.531	0.501	0.501	0.494	0.493
10 µM, coculture fibroblast: Hs5	0.878	0.853	0.724	0.668	0.629	0.608	0.601	0.582	0.576
10 µM, coculture fibroblast: Hs27A	0.77183	0.9643	0.957	0.828	0.812	0.797	0.835	0.828	0.802
10 µM, coculture fibroblast: Hs343T	0.814	0.84	0.615	0.5399	0.503	0.473	0.462	0.457	0.447
10 µM, coculture fibroblast: WS1	0.8535	0.647	0.529	0.456	0.404	0.391	0.384	0.387	0.384
100 µM, coculture fibroblast: C12385	0.8115	0.689	0.632	0.582	0.517	0.502	0.49	0.487	0.481
100 µM, coculture fibroblast: H6013	0.915	0.816	0.757	0.673	0.64	0.617	0.615	0.588	0.575
100 µM, coculture fibroblast: H6019	0.7825	0.609	0.507	0.454	0.39	0.377	0.355	0.343	0.3391
100 µM, coculture fibroblast: H6076	0.898	0.8435	0.637	0.567	0.5174	0.486	0.4634	0.452	0.43588
100 µM, coculture fibroblast: H6231	0.962	0.799	0.626	0.56	0.529	0.495	0.464	0.448	0.437
100 µM, coculture fibroblast: HADF	0.905	0.759	0.6978	0.6	0.575	0.546	0.539	0.53	0.504
100 µM, coculture fibroblast: HCFa	0.876	0.728	0.665	0.585	0.555	0.535	0.544	0.53	0.518
100 µM, coculture fibroblast: HCPF	0.969	0.861	0.759	0.711	0.685	0.651	0.624	0.612	0.562
100 µM, coculture fibroblast: HHSteC	0.884	0.73	0.668	0.552	0.518	0.486	0.486	0.47	0.444
100 µM, coculture fibroblast: HMF	0.986	0.824	0.65	0.583	0.527	0.498	0.47	0.45	0.43
100 µM, coculture fibroblast: HPFa	0.842	0.68	0.611	0.51	0.482	0.447	0.453	0.447	0.431
100 µM, coculture fibroblast: HUF	0.8344	0.672	0.576	0.504	0.466	0.439	0.435	0.425	0.418
100 µM, coculture fibroblast: Hs5	0.838	0.8	0.644	0.57	0.538	0.498	0.5	0.482	0.466
100 µM, coculture fibroblast: Hs27A	0.955	0.918	0.849	0.863	0.837	0.735	0.709	0.736	0.754
100 µM, coculture fibroblast: Hs343T	0.931	0.759	0.557	0.493	0.471	0.443	0.413	0.414	0.39
100 µM, coculture fibroblast: WS1	0.807	0.63	0.554	0.485	0.423	0.403	0.385	0.364	0.355
